Source: patent publication US20250223404A1, “SHAPED ARTICLE COMPRISING A POLY(ARYL ETHER SULFONE) (PAES) POLYMER AND METHOD OF MAKING USING MELT PROCESSING” (Solvay Specialty Polymers USA, LLC, priority 2022, published 2025)
Some results were stated once for a whole list of compounds, not compound by compound.

Molecular target: T1, human Estrogen receptor alpha (ERα) (Homo sapiens, UniProt P03372)
T1 construct: expressed in transfected cells; host or cells: GeneBLAzer ER-α-UAS-bla GripTite 293 cells (stably integrated)
T1 sequence (P03372 311-547 limits assumed): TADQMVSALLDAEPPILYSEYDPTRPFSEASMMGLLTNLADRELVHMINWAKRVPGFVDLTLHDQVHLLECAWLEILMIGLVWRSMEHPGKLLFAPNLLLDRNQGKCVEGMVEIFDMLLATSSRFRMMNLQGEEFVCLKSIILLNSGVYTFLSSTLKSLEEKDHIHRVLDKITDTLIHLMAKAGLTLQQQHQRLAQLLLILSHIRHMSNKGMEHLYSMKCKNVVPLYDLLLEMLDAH
Experiment: GeneBLAzer Cell-Based Nuclear Receptor Assay (beta-lactamase reporter), ER-α-UAS-bla GripTite 293 cells
Description: The response value “EC50” was measured by using the GeneBLAzer® Cell-Based Nuclear Receptor Assay technology which uses the GeneBLAzer®.
The monomers (see Table 7) were dissolved in 100% biological-grade DMSO at a concentration of 7 to 250000 nM (nanomolar). The ER-α-UAS-bla GripTite™ 293 cells were used to measure EC50. The higher the EC50 value is, the weaker the estrogenic agonist activity is for the monomer tested.
The GeneBLAzer® ER-α-UAS-bla GripTite™ cells contain a ligand-binding domain (LBD) of the human Estrogen receptor alpha (ERα) fused to a DNA-binding domain of GAL4 plasmid stably integrated in the GeneBLAzer® UAS-bla GripTite™ cell line. The GeneBLAzer® UAS-bla GripTite™ cells stably express a beta-lactamase reporter gene under the transcriptional control of an upstream activator sequence (UAS). When an estrogenic agonist binds to the LBD of the GAL4 (DBD)-ER α (LBD) fusion protein, the protein binds to the UAS, resulting in expression of beta-lactamase.

Oc1cc2ccccc2cc1O [2,3-NDO, 2,3 Napthalene diol]
EC50 fold higher than BP (ratio of EC50 versus BP): at least 10 fold
EC50 fold higher than BPA (ratio of EC50 versus BPA): at least 100 fold
